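Primary screen of methionyl-tRNA synthetase; the read-out is not stated. Target: Methionyl-tRNA synthetase (putative), Leishmania donovani (UniProt E9BF75). The test concentration is not given. The values are filed as inhibition. Size under these conditions: about 68,000 compounds, about 24 of them at 50% or above in at least one test.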

Chains of the proteins cited; added tags and fusions are not shown.
UniProt E9BF75, entry or part of it: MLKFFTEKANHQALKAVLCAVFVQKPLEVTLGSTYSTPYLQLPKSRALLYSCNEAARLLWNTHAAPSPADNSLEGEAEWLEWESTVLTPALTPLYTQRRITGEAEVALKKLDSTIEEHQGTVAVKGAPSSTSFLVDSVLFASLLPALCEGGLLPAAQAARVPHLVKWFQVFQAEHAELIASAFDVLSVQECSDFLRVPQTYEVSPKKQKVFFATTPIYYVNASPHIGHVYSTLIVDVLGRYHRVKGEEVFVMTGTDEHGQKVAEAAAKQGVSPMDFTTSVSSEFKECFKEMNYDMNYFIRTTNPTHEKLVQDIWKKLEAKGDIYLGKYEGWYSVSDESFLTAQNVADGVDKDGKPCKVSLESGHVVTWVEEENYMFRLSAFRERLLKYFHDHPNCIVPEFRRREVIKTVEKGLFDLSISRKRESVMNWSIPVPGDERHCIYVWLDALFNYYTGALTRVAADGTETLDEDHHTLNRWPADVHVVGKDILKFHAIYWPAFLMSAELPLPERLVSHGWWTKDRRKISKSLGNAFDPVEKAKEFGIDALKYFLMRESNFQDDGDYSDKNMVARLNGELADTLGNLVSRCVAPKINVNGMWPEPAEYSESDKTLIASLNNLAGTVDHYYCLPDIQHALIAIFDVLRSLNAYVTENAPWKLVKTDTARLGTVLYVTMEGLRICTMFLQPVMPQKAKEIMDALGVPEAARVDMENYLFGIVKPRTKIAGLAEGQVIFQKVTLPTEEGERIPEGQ

Results are percentages, as filed. How 0% and 100% were set is not recorded. Most values in the screen are low, and negative values occur. Compounds were drawn at random from those tested, without regard to their results.

For CC(C)COCc1cncc2c1CCN(Cc1cnn(C)c1)C2 the result was 14.96%.
For CSc1ncccc1C(=O)NCC(c1ccco1)N(C)C (stereo not shown) the result was 4.826%.
For O=C(C1CC1)N1CCN(Cc2coc(-c3ccc(Cl)cc3)n2)CC1 the result was 13.36%.
For Cc1ccc2c(c1)OC(C)(C)CC2NC(=O)C1CCN(S(C)(=O)=O)CC1 (stereo not shown) the result was 5.556%.
For Cc1cnn(CC2CCCCN2C(=O)c2ccc3[nH]c(=O)[nH]c3c2)c1 (stereo not shown) the result was 18.23%.
For O=C(O)c1ccccc1-c1ccc(CN2CCOCC2)cn1 the result was 18.1%.
For COCC(=O)NC[C@@]1(COc2cccnc2)C[C@@H](O)[C@@H](O)C1 the result was 5.263%.
For COCCc1noc(C2CCCN(c3ncnc4c3CCC4)C2)n1 (stereo not shown) the result was 16.06%.
For CS(=O)(=O)N1CCO[C@@H]2CN(C(=O)C3CC(F)(F)C3)C[C@@H]2C1 the result was 15.93%.
For O=C1OCCN1C1CCN(Cc2cc3n(n2)CCCNC3)CC1 the result was -102.2%.
For COc1ccc(NC(=O)c2cnc(N(C)C3CCCCC3)nc2N)cc1 the result was 16.77%.
For CC(C)CCN1C[C@H]2C[C@H](C(=O)Nc3cccnc3)[C@@H](C1)O2 the result was 12.94%.
For Cn1nccc1CCC(=O)NC1CCCN(c2ccccn2)C1 (stereo not shown) the result was 9.627%.
For Cc1nn(C)c(N(C)C)c1CNCc1ccccc1Cn1cncn1 the result was 9.722%.
For Cc1ccc(NC2CCN(C(=O)CCc3ccccc3)CC2)nn1 the result was 22.22%.
For O=C(Cc1ccccc1)NCc1ccc(-c2ccccc2C(=O)O)cn1 the result was 16.04%.
For CCc1ccsc1CNC(=O)CNC(=O)C(C)(C)C the result was 20.17%.
For Cc1nc(C)c(C(=O)N2CCCC(c3cnccn3)C2)s1 (stereo not shown) the result was 17.36%.
For CN(C)Cc1csc(-c2nccn2Cc2ccsc2)c1 the result was 1.875%.
For CN(C)Cc1cc(=O)n2c(n1)CN(CC1CC1)CCC2 the result was 11.68%.
For CC(c1nc(C2CC2)no1)N1CCN(Cc2nnc(C3CC3)o2)CC1 (stereo not shown) the result was 11.48%.
For CCOC(=O)N1CCN(c2nc(CCN)nc3sc(C)c(C)c23)CC1 the result was 19.35%.
For COc1cccc2c1OCC(Cc1cc(C(=O)N3CCCC3)ccn1)C2 (stereo not shown) the result was 18.58%.
For COc1ccccc1-n1nc(CC(C)C)nc1Cc1nnc(N)s1 the result was 2.872%.
For CN(C)CCCn1ccc(-c2cccc(-c3ccccn3)c2)n1 the result was 2.01%.
For COc1cc2c(cc1OC)C(=O)C(Sc1nnnn1C)C2 (stereo not shown) the result was 9.14%.
For CC1CCCN(C(=O)c2nnn(-c3ccc(C(F)(F)F)cc3)n2)C1 (stereo not shown) the result was 4.317%.
For CCNC(=O)N(C)C(c1cccc(F)c1)c1ccccn1 (stereo not shown) the result was 14.98%.
For Cn1cc(CN2CCC(c3cc(COc4ccc(Cl)cc4)[nH]n3)C2)cn1 (stereo not shown) the result was 32.4%.
For Cc1nc(C(=O)N(C)C2CC(=O)N(Cc3ccccc3)C2=O)cs1 (stereo not shown) the result was 14.29%.
For COCCN(C)C[C@@H]1CN(C(=O)c2sc3ccccc3c2C)C[C@@H]1CO the result was 11.88%.
For CCOC(=O)Cc1n[nH]c(-c2cncc(Br)c2)n1 the result was 15.14%.
For Cc1nn(C)c2ncnc(N3CCCC(C)(O)C3)c12 (stereo not shown) the result was 6.138%.
For Cc1ncsc1CN1C[C@@H](OCC2CC2)[C@H]2OCCC[C@H]21 the result was 16.73%.
For N#Cc1cccc(C(=O)N2CCCC(C(=O)CCc3ccccc3)C2)c1 (stereo not shown) the result was 12.13%.
For CNC(=O)c1ccc(C(=O)N2CCCC(n3nc(C)cc3C)C2)cn1 (stereo not shown) the result was 11.68%.
For CN(Cc1nnc(C2CC2)n1C)S(=O)(=O)c1ccccc1C#N the result was 12.83%.
For Fc1ccc(-c2cnc(CNC3CCc4ncnn4C3)o2)cc1 (stereo not shown) the result was 8.271%.
For Cc1cccc2nc(C(=O)N3CCC(Nc4cccnn4)CC3)cn12 the result was 15.28%.
For Cc1cccc(CN2CCOCC2c2[nH]ncc2C)n1 (stereo not shown) the result was 9.884%.
For CN(C)c1cc(C(F)(F)F)cc(-c2ccc(C(=O)O)cc2)n1 the result was 12.4%.
For COc1ccc(F)c(-c2ncccc2NC(=O)C(C)C)c1 the result was 5.627%.
For CCn1cc(CNC2CCN(c3cccc(C)c3C)CC2)cn1 the result was 12.89%.
For Cc1cc(N2CCC(NCCOc3ccccc3)CC2)nc(C)n1 the result was 19.62%.
For COc1ccc(N(C(=O)c2cnc(C)cn2)C(C)C)cc1F the result was 12.1%.

The first 4 entries again:

compound	Inhibition
CC(C)COCc1cncc2c1CCN(Cc1cnn(C)c1)C2	14.96
CSc1ncccc1C(=O)NCC(c1ccco1)N(C)C (stereo not shown)	4.826
O=C(C1CC1)N1CCN(Cc2coc(-c3ccc(Cl)cc3)n2)CC1	13.36
Cc1ccc2c(c1)OC(C)(C)CC2NC(=O)C1CCN(S(C)(=O)=O)CC1 (stereo not shown)	5.556

Source: ChEMBL document CHEMBL3988442, “University of Dundee, Small-Polar-MMV Screening Library” (2021).